Assay results taken from article PMC13000115.
These are yes or no findings as the source states them, for the method shown. Binding seen in cells or lysates may run through a third protein. Some entries that bind do so weakly or less than the wild type.

The chains behind the UniProt entries cited, without tags or fusion partners.
UniProt P35222: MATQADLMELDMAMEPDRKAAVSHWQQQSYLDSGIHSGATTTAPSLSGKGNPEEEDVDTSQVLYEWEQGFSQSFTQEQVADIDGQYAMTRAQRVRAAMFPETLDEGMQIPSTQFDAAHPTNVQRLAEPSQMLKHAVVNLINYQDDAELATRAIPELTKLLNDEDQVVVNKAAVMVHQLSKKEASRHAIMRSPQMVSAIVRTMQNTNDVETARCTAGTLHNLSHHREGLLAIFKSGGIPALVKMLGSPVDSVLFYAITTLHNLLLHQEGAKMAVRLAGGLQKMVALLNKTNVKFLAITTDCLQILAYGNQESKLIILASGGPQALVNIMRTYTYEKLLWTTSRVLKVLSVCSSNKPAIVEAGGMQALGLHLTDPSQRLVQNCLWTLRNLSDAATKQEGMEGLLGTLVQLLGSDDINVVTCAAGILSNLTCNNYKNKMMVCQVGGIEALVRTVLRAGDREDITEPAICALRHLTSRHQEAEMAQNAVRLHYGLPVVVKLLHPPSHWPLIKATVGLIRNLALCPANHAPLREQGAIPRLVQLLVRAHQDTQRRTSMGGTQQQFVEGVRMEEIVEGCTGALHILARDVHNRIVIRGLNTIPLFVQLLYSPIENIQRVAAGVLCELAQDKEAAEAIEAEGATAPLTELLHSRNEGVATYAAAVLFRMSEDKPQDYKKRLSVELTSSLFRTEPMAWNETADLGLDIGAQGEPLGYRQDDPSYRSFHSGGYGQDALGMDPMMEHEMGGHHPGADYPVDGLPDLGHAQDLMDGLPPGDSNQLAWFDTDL
UniProt P17844: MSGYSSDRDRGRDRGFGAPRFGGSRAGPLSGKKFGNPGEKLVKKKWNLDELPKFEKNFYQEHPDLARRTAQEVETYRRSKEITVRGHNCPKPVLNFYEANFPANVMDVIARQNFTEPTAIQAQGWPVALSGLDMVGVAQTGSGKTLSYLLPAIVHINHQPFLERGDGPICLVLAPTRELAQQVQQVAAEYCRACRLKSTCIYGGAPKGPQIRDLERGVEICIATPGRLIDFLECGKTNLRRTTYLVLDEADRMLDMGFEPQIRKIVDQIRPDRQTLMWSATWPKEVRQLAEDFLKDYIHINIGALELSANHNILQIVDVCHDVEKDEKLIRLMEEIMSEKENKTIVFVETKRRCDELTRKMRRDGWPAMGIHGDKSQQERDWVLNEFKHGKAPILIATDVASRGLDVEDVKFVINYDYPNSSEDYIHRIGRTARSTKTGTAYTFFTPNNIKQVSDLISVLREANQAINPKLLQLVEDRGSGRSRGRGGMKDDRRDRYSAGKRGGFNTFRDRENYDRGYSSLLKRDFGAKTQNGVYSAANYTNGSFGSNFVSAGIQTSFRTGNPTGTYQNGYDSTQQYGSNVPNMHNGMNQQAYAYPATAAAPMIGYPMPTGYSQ

Target: β-catenin (UniProt P35222)
Assay: co-IP; co-immunoprecipitation of DDX5 and β-catenin, testing the effect of MIG; n = 3; cells, bait and antibody not stated (performed as in ref. 42)

DDX5 (DEAD-box helicase 5) (from UniProt P17844 1-614)
binding: binds
